Assay results taken from PMC7990853.
These are yes or no findings as the source states them, for the method shown. In cells and extracts the contact can be indirect. Some entries that bind do so weakly or less than the wild type. Tags and fused reporters may be left off the sequences shown.

Target: T1, mCherry tagged DDHD domain of RDGB (mCherry::DDHD) (Drosophila) (UniProt P43125)
T1 sequence: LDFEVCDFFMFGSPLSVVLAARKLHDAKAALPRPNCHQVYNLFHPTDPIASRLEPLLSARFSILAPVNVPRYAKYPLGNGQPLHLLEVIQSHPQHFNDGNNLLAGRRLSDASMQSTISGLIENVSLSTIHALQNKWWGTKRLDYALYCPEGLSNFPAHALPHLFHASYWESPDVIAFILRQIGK
Assay: co-IP; S2R+ cells co-transfected with mCherry::DDHD and LNS2::GFP for 48 h; lysis in 50 mM Tris-Cl, 1 mM EGTA, 1 mM EDTA, 1% Triton X-100, 50 mM NaF, 0.27 M sucrose, 0.1% beta-mercaptoethanol; immunoprecipitation with anti-mCherry antibody overnight at 4°C, Protein-G sepharose; control IgG; blot for GFP

B1: GFP tagged LNS2 domain of RDGB (LNS2::GFP) (domain or fragment, UniProt P43125 947-1259)
chain: VKLKNVAANHRANDVIVQEGREQRLNARFMYGPLDMITLHGEKVDVHIMKDPPAGEWTFLSTEVTDKNGRISYSIPDQVSLGYGIYPVKMVVRGDHTSVDCYMAVVPPLTECVVFSIDGSFTASMSVTGRDPKVRAGAVDVCRHWQELGYLLIYITGRPDMQQQRVVSWLSQHNFPHGLISFADGLSTDPLGHKTAYLNNLVQNHGISITAAYGSSKDISVYTNVGMRTDQIFIVGKVGKKLQSNATVLSDGYAAHLAGLQAVGGSRPAKGNARMVIPRGCFNLPGQTANPRRRRYLERKTVSSCCLMVFQTT
binding: binds
